The results in this text go back to PMC7935581.

Protein sequences, listed by entry. Tags and fused reporters are not part of them. Residues count along the entry.
UniProt Q96P20: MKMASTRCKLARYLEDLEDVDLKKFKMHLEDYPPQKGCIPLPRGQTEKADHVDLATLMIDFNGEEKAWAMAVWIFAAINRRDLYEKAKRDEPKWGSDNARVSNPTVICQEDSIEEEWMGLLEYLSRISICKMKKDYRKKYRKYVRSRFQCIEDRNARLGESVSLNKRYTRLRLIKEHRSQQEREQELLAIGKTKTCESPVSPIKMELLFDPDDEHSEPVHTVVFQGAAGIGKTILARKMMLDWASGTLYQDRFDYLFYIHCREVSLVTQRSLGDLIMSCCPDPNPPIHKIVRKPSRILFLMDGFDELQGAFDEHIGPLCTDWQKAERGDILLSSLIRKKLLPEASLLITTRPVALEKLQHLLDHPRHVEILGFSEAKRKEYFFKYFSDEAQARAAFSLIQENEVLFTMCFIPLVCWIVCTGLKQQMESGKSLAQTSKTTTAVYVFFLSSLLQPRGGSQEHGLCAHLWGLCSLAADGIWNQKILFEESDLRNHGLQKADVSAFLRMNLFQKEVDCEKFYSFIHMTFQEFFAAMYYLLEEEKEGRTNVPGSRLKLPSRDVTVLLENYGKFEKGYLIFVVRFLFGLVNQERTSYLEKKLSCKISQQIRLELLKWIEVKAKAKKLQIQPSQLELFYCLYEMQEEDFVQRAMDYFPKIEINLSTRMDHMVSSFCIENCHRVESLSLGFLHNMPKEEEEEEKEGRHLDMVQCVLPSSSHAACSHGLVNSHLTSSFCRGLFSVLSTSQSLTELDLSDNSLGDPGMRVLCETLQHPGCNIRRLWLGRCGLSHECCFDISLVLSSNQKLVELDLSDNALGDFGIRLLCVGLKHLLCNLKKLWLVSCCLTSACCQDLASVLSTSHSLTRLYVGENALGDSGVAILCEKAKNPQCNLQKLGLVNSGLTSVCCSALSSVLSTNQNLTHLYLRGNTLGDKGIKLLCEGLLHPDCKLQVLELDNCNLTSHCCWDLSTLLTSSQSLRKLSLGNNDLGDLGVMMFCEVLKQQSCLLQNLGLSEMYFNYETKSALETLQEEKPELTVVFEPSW
UniProt O00206, residues 24-839: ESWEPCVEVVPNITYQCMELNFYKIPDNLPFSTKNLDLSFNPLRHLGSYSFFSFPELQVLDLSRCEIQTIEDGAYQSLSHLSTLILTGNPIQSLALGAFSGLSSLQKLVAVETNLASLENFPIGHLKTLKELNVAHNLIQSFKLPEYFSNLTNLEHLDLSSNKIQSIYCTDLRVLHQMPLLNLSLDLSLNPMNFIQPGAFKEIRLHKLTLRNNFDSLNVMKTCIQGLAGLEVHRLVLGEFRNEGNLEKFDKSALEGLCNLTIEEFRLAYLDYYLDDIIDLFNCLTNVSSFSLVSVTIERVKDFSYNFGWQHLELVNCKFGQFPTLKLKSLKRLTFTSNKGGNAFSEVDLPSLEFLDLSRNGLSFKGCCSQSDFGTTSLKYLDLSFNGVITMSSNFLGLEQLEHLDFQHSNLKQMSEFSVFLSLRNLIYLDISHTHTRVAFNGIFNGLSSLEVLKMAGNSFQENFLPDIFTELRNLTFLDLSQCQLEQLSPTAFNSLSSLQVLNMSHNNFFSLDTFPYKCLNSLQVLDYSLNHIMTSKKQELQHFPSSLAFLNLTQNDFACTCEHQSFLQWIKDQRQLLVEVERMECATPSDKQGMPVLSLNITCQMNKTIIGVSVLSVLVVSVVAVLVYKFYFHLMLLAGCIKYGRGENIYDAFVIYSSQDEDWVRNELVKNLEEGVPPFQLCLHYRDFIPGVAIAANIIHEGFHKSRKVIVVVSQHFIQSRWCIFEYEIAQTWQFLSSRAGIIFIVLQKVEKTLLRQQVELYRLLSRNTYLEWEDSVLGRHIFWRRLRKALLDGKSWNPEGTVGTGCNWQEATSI

This assay addresses nucleotide-binding domain leucine-rich repeat containing protein 3 (NLRP3) (human (endogenous in platelets)) (UniProt Q96P20). As to the kind of experiment: co-IP; human platelets treated with or without resveratrol (100 uM, 10 min), then ox-LDL (0.1 mg/ml, 10 min); lysed in RIPA buffer; lysate with 1 ug anti-phosphorylated Syk or anti-NLRP3 monoclonal antibody at 4°C for 1 h, protein A/G beads overnight at 4°C; immunoblot; normal rabbit IgG as nonimmune control.

These are yes or no findings as the source states them, for the method shown. In cells and extracts the contact can be indirect. Some binding calls cover weakened binding; strength is not graded here.

With “Toll-like receptor 4 (TLR4) (from UniProt O00206 24-839)”, the binding result is listed as “binds”.
